From PubChem BioAssay AID248 (DTP/NCI, 2004)
The list does not hold the whole screen: it gathers tests that were run many times, whatever their T/C, doses with no T/C, and many T/C values between a quarter and a half above the control. Other doses and runs of a compound stand elsewhere. T/C is the treated group as % of the vehicle group. Some entries give survivors of the animals treated and no T/C: the source holds a T/C of zero for them, seemingly a mark for toxic or unscored doses. Some doses without a T/C left all or most animals alive at the check, yet need not have been tolerated: survival well below the control is almost never listed, so the zero probably covers shortened survival too. Survivors were counted at the toxicity check, usually on the fifth day, unless a day is given; later deaths do not show. Schedules are NCI's codes, read here as Q, the interval in days (D) or hours (H), X, the number of doses. Some entries hold several experiments; the values are given in rising order. Some schedules carry Z or #; the key to these is not given. Where survival is the endpoint, the PubChem record calls one and a half times the control and up active, and a quarter to a half above the control has no call in these data; cut-offs in other NCI protocols can differ. Some T/C values are followed by the survivors on the day toxicity was checked, most often the fifth; where none is given, no animal had died by that day.

Test system: L1210 leukemia ip in BDF1 mice, survival T/C
Assay: NCI In Vivo Anticancer Drug Screen. Data for tumor model L1210 Leukemia (intraperitoneal) in B6D2F1 (BDF1) mice
Conditions: T/C endpoint: mean survival time, higher T/C = longer survival
[1] = dose: 400.0 mg/kg/injection, schedule: Q01DX001 (ip), vehicle: saline
[2] = dose: 400.0 mg/kg/injection, schedule: Q04DX003 (ip), vehicle: saline with Tween-80
[3] = dose: 400.0 mg/kg/injection, schedule: Q04DX003 (ip), vehicle: Klucel (hydroxypropylcellulose) (HPC)
[4] = dose: 100.0 mg/kg/injection, schedule: Q01DX009 (ip), vehicle: Klucel (hydroxypropylcellulose) (HPC)
[5] = dose: 200.0 mg/kg/injection, schedule: Q01DX009 (ip), vehicle: Klucel (hydroxypropylcellulose) (HPC)
[6] = dose: 400.0 mg/kg/injection, schedule: Q04DX003 (ip), vehicle: saline
[7] = dose: 200.0 mg/kg/injection, schedule: Q04DX003 (ip), vehicle: Klucel (hydroxypropylcellulose) (HPC)
[8] = dose: 200.0 mg/kg/injection, schedule: Q04DX003 (ip), vehicle: saline

In the case of `CC(C)(C)OC(=O)NC(CC(N)=O)C(=O)ON1C(=O)CCC1=O` (stereo not drawn), the T/C (dose: 100.0 mg/kg/injection, schedule: Q01DX009 (ip), vehicle: saline) is reported as 125 % of control.

In the case of `C=CCc1ccc2c(C)cc[n+](C)c2c1O`, the survivor count [1] is reported as 1 of 4.

In the case of `O=C(O)c1cc2ccccc2oc1=O`, the survivor count (dose: 20.0 mg/kg/injection, schedule: Q01DX009 (ip), vehicle: Klucel (hydroxypropylcellulose) (HPC)) is reported as 1 of 3, the survivor count (dose: 40.0 mg/kg/injection, schedule: Q01DX009 (ip), vehicle: Klucel (hydroxypropylcellulose) (HPC)) is reported as 0 of 3 and the survivor count (dose: 100.0 mg/kg/injection, schedule: Q04DX003 (ip), vehicle: saline with Tween-80) is reported as 1 of 3. For the same compound, the survivor count (dose: 200.0 mg/kg/injection, schedule: Q04DX003 (ip), vehicle: saline with Tween-80) was 0 of 3 and the survivor count [2] was 0 of 3.

For `COC1=[C]([Hg][Br])C(OC)OC1OC` (stereo not drawn), the survivor count (dose: 20.0 mg/kg/injection, schedule: Q01DX009 (ip), vehicle: saline with Tween-80) was 3 of 6.

With `O=[N+]([O-])c1ccc(C[Se]c2ncnc3c2ncn3C2OC(CO)C(O)C2O)cc1` (stereo not drawn) the survivor count (dose: 100.0 mg/kg/injection, schedule: Q01DX005 (ip), vehicle: saline) was 1 of 6 and the survivor count (dose: 200.0 mg/kg/injection, schedule: Q01DX005 (ip), vehicle: saline) was 0 of 6.

In the case of `CSc1nc(N)cc(C(N)=O)n1`, the survivor count (dose: 200.0 mg/kg/injection, schedule: Q01DX Z (ip), vehicle: methylcellulose (MC)) is reported as 0 of 6.

With `C=CC1CNCCC1CC(=O)OCC` (stereo not drawn) the survivor count [1] was 0 of 6.

With `Cc1cccc(C)c1N(C=O)N=O` the survivor count [1] was 0 of 4.

`O=C(O)c1cc(C(=O)c2ccccn2)c2cccc(C(F)(F)F)c2n1` was tested, and the survivor count [3] was 0 of 6.

With `COc1cc([N+](=O)[O-])ccc1NC(=O)Oc1ccccc1C(N)=O` the survivor count [4] was 6 of 6, the survivor count [5] was 5 of 6 and the survivor count (dose: 400.0 mg/kg/injection, schedule: Q01DX009 (ip), vehicle: Klucel (hydroxypropylcellulose) (HPC)) was 0 of 6.

With `CCCCC[n+]1ccc(C(N)=O)cc1` the survivor count [6] was 4 of 6.

For `Nc1ccccn1`, the survivor count (dose: 50.0 mg/kg/injection, schedule: Q01DX001 (ip), vehicle: saline) was 0 of 4, the survivor count (dose: 50.0 mg/kg/injection, schedule: Q04DX002 (ip), vehicle: saline) was 0 of 3 and the survivor count (dose: 100.0 mg/kg/injection, schedule: Q01DX001 (ip), vehicle: saline) was 0 of 4. The survivor count (dose: 200.0 mg/kg/injection, schedule: Q01DX001 (ip), vehicle: saline) was 0 of 4 and the survivor count [1] was 0 of 4.

`O=NO.O=N[O-].O=N[O-].[Co+3].[NH2-].[NH2-].[NH2-].[NH2-]` was tested, and the survivor count (dose: 50.0 mg/kg/injection, schedule: Q01DX009 (ip), vehicle: Klucel (hydroxypropylcellulose) (HPC)) was 6 of 6, the survivor count [4] was 1 of 6 and the survivor count [5] was 0 of 6. For the same compound, the survivor count [7] was 0 of 6 and the survivor count [3] was 0 of 6.

With `CCN(C(=O)Nc1cccc(Cl)c1)c1ccccc1C` the survivor count [2] was 6 of 6.

In the case of `COC(=O)/C=C(\C(=O)OC)N(C)c1ccccc1`, the survivor count (dose: 100.0 mg/kg/injection, schedule: Q01DX001 (ip), vehicle: other) is reported as 3 of 6 and the survivor count (dose: 200.0 mg/kg/injection, schedule: Q01DX001 (ip), vehicle: other) is reported as 0 of 6.

For `NC1CCCc2ccccc2C1O` (stereo not drawn), the survivor count [1] was 0 of 4.

In the case of `CS(=O)(=O)OCCN(CCOS(C)(=O)=O)c1ccc(C=Nc2ccc(-c3csc(-c4ccc(Cl)cc4)n3)cc2)cc1`, the T/C (dose: 50.0 mg/kg/injection, schedule: Q04DX003 (ip), vehicle: Klucel (hydroxypropylcellulose) (HPC)) is reported as 129 % of control, the T/C (dose: 100.0 mg/kg/injection, schedule: Q04DX003 (ip), vehicle: Klucel (hydroxypropylcellulose) (HPC)) is reported as 135, 137, 140 % of control and the T/C [7] is reported as 125 and 137 % of control [5 of 6 alive]. The survivor count [3] was 5 of 6.

For `CCCCN(CCO)C(C#CC(C)(C)O)C(C)C` (stereo not drawn), the survivor count [2] was 0 of 6.

With `CCCCSSC(Cl)(Cl)Cl` the survivor count (dose: 25.0 mg/kg/injection, schedule: Q01DX009 (ip), vehicle: carboxymethylcellulose (CMC)) was 3 of 3, the survivor count (dose: 50.0 mg/kg/injection, schedule: Q01DX009 (ip), vehicle: carboxymethylcellulose (CMC)) was 0 of 6 and the survivor count (dose: 100.0 mg/kg/injection, schedule: Q01DX009 (ip), vehicle: carboxymethylcellulose (CMC)) was 0 of 6. The T/C (dose: 100.0 mg/kg/injection, schedule: Q04DX002 (ip), vehicle: carboxymethylcellulose (CMC)) was 90, 98, 107, 116 % of control, the survivor count (dose: 100.0 mg/kg/injection, schedule: Q04DX003 (ip), vehicle: carboxymethylcellulose (CMC)) was 0 of 6 and the survivor count (dose: 200.0 mg/kg/injection, schedule: Q01DX009 (ip), vehicle: carboxymethylcellulose (CMC)) was 0 of 6. For the same compound, the survivor count (dose: 200.0 mg/kg/injection, schedule: Q04DX003 (ip), vehicle: carboxymethylcellulose (CMC)) was 0 of 6 and the survivor count (dose: 400.0 mg/kg/injection, schedule: Q04DX002 (ip), vehicle: carboxymethylcellulose (CMC)) was 1 of 3 and 3 of 6.

In the case of `COCc1ccc(N2C(N)=NC(N)=NC2(C)C)cc1`, the survivor count [8] is reported as 0 of 6 and the survivor count [6] is reported as 0 of 6.

With `COc1ccc(C(O)CCN2CCCCC2)cc1` (stereo not drawn) the survivor count (dose: 200.0 mg/kg/injection, schedule: Q01DX001 (ip), vehicle: saline with Tween-80) was 1 of 6 and the survivor count (dose: 400.0 mg/kg/injection, schedule: Q01DX001 (ip), vehicle: saline with Tween-80) was 1 of 6.

In the case of `CCOC(=O)c1cnc(NN)nc1Nc1ccccc1Cl`, the survivor count [2] is reported as 3 of 6.

In the case of `O=NN(CCCl)C(=O)NC1CCSCC1`, the T/C (dose: 2.0 mg/kg/injection, schedule: Q01DX001 (ip), vehicle: carboxymethylcellulose (CMC)) is reported as 134 % of control, the survivor count (dose: 27.0 mg/kg/injection, schedule: Q01DX001 (ip), vehicle: carboxymethylcellulose (CMC)) is reported as 10 of 10 and the survivor count (dose: 31.0 mg/kg/injection, schedule: Q01DX001 (ip), vehicle: carboxymethylcellulose (CMC)) is reported as 3 of 6. The survivor count (dose: 32.0 mg/kg/injection, schedule: Q01DX001 (ip), vehicle: carboxymethylcellulose (CMC)) was 8 of 10, the survivor count (dose: 62.0 mg/kg/injection, schedule: Q01DX001 (ip), vehicle: carboxymethylcellulose (CMC)) was 2 of 6 and the survivor count (dose: 125.0 mg/kg/injection, schedule: Q01DX001 (ip), vehicle: carboxymethylcellulose (CMC)) was 1 of 6. For the same compound, the survivor count (dose: 250.0 mg/kg/injection, schedule: Q01DX001 (ip), vehicle: carboxymethylcellulose (CMC)) was 0 of 6, the survivor count (dose: 375.0 mg/kg/injection, schedule: Q01DX001 (ip), vehicle: carboxymethylcellulose (CMC)) was 0 of 6 and the survivor count (dose: 500.0 mg/kg/injection, schedule: Q01DX001 (ip), vehicle: carboxymethylcellulose (CMC)) was 0 of 6.

In the case of `COc1cccc(CC(=O)C(=O)O)c1`, the survivor count [3] is reported as 3 of 6.

In the case of `O=C(CCN1CC1)Nc1ccc(Cl)c(Cl)c1`, the survivor count [4] is reported as 1 of 6, the survivor count [7] is reported as 2 of 6 and the survivor count [3] is reported as 0 of 6.

`C#CCOCC(CCl)OC(N)=O` (stereo not drawn) was tested, and the survivor count (dose: 400.0 mg/kg/injection, schedule: Q01DX009 (ip), vehicle: saline with Tween-80) was 0 of 6 and the survivor count [2] was 1 of 7.

With `[N-]=[N+]=Nc1c2ccccc2nc2ccccc12` the survivor count (dose: 10.0 mg/kg/injection, schedule: Q01DX001 (ip), vehicle: saline) was 0 of 6, the survivor count (dose: 20.0 mg/kg/injection, schedule: Q01DX001 (ip), vehicle: saline) was 0 of 6 and the survivor count (dose: 40.0 mg/kg/injection, schedule: Q01DX001 (ip), vehicle: saline) was 0 of 6. The survivor count (dose: 75.0 mg/kg/injection, schedule: Q01DX001 (ip), vehicle: saline) was 2 of 6, the survivor count (dose: 150.0 mg/kg/injection, schedule: Q01DX001 (ip), vehicle: saline) was 2 of 6 and the survivor count (dose: 300.0 mg/kg/injection, schedule: Q01DX001 (ip), vehicle: saline) was 2 of 6.

`CC(C)=CCC(C#N)(CCN(C)C)c1cccc2ccccc12` (stereo not drawn) was tested, and the survivor count [8] was 2 of 6 and the survivor count [6] was 0 of 6.
